{"source": "the supplement of paper PMC8728848", "binders": {"B1": {"name": "Protein L(A-C2) (Finegoldia magna), Q51912 (protein)", "chain": "ADEPIDLEKLEEKRDKENVGNLPKFDNEVKDGSENPMAKYPDFDDEASTRFETENNEFEEKKVVSDNFFDQSEHPFVENKEETPETPETDSEEEVTIKANLIFANGSTQTAEFKGTFEKATSEAYAYADTLKKDNGEYTVDVADKGYTLNIKFAGKEKTPEEPKEEVTIKANLIYADGKTQTAEFKGTFEEATAEAYRYADALKKDNGEYTVDVADKGYTLNIKFAGKEKTPEEPKEEVTIKANLIYADGKTQTAEFKGTFEEATAEAYRYADLLAKENGKYTVDVADKGYTLNIKFAGKEKTPEEPKEEVTIKANLIYADGKTQTAEFKGTFAEATAEAYRYADLLAKENGKYTADLEDGGYTINIRFAGKKVDEKPEEKEQVTIKENIYFEDGTVQTATFKGTFAEATAEAYRYADLLSKEHGKYTADLEDGGYTINIRFAGKEEPEETPEKPEVQDGYASYEEAEAAAKEALKNDDVNKSYTIRQGADGRYYYVLSPVEAEEEKPEAQNGYATYEEAEAAAKKALENDPINKSYSIRQGADGRYYYVLSPVEAE"}}, "assay_in_all_cases": "glycan array binding signal (z-score within array); higher = stronger binding", "conditions_in_all_cases": "glycan notation: IUPAC condensed, linker removed", "key": {"Gal(b1-4)Glc": {"target": "Gal(b1-4)Glc", "how_it_was_run": "(§1)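 Negative Z-scores can be read as non-binding. The Z-score is calculated within each array and then averaged across arrays of one protein sequence at different concentrations or buffers and across linkers. Arrays, 3228 in all, were curated from the Consortium for Functional Glycomics database and kept only where the protein sequence was available.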"}, "Gal(b1-4)Glc6S": {"target": "Gal(b1-4)Glc6S", "how_it_was_run": "as §1"}, "Gal(b1-4)GlcNAc": {"target": "Gal(b1-4)GlcNAc", "how_it_was_run": "as §1"}, "[1]": {"target": "Gal(b1-4)GlcNAc(a1-6)Gal(b1-4)GlcNAc", "how_it_was_run": "as §1"}, "Gal(b1-4)GlcNAc(b1-2)Man": {"target": "Gal(b1-4)GlcNAc(b1-2)Man", "how_it_was_run": "as §1"}, "[2]": {"target": "Gal(b1-4)GlcNAc(b1-2)Man(a1-3)Man(b1-4)GlcNAc(b1-4)GlcNAc", "how_it_was_run": "as §1"}, "[3]": {"target": "Gal(b1-4)GlcNAc(b1-2)Man(a1-3)[Gal(b1-4)GlcNAc(b1-2)Man(a1-6)]Man(b1-4)GlcNAc(b1-4)GlcNAc", "how_it_was_run": "as §1"}, "[4]": {"target": "Gal(b1-4)GlcNAc(b1-2)Man(a1-3)[Gal(b1-4)GlcNAc(b1-2)Man(a1-6)]Man(b1-4)GlcNAc(b1-4)[Fuc(a1-6)]GlcNAc", "how_it_was_run": "as §1"}, "[5]": {"target": "Gal(b1-4)GlcNAc(b1-2)Man(a1-3)[Gal(b1-4)GlcNAc(b1-2)Man(a1-6)][Gal(b1-4)GlcNAc(b1-4)]Man(b1-4)GlcNAc(b1-4)[Fuc(a1-6)]GlcNAc", "how_it_was_run": "as §1"}, "[6]": {"target": "Gal(b1-4)GlcNAc(b1-2)Man(a1-3)[Gal(b1-4)GlcNAc(b1-2)Man(a1-6)][GlcNAc(b1-4)]Man(b1-4)GlcNAc(b1-4)[Fuc(a1-6)]GlcNAc", "how_it_was_run": "as §1"}, "[7]": {"target": "Gal(b1-4)GlcNAc(b1-2)Man(a1-3)[GlcNAc(b1-2)Man(a1-6)]Man(b1-4)GlcNAc(b1-4)GlcNAc", "how_it_was_run": "as §1"}, "[8]": {"target": "Gal(b1-4)GlcNAc(b1-2)Man(a1-3)[GlcNAc(b1-4)][Gal(b1-4)GlcNAc(b1-2)Man(a1-6)]Man(b1-4)GlcNAc(b1-4)GlcNAc", "how_it_was_run": "as §1"}, "[9]": {"target": "Gal(b1-4)GlcNAc(b1-2)Man(a1-3)[Man(a1-6)]Man(b1-4)GlcNAc(b1-4)GlcNAc", "how_it_was_run": "as §1"}, "[10]": {"target": "Gal(b1-4)GlcNAc(b1-2)Man(a1-6)Man(b1-4)GlcNAc(b1-4)GlcNAc", "how_it_was_run": "as §1"}, "[11]": {"target": "Gal(b1-4)GlcNAc(b1-2)Man(a1-6)[GlcNAc(b1-2)Man(a1-3)]Man(b1-4)GlcNAc(b1-4)GlcNAc", "how_it_was_run": "as §1"}, "[12]": {"target": "Gal(b1-4)GlcNAc(b1-2)Man(a1-6)[Man(a1-3)]Man(b1-4)GlcNAc(b1-4)GlcNAc", "how_it_was_run": "as §1"}, "[13]": {"target": "Gal(b1-4)GlcNAc(b1-2)[Gal(b1-4)GlcNAc(b1-4)]Man(a1-3)[Gal(b1-4)GlcNAc(b1-2)Man(a1-6)]Man(b1-4)GlcNAc(b1-4)GlcNAc", "how_it_was_run": "as §1"}, "[14]": {"target": "Gal(b1-4)GlcNAc(b1-2)[Gal(b1-4)GlcNAc(b1-4)]Man(a1-3)[Gal(b1-4)GlcNAc(b1-2)[Gal(b1-4)GlcNAc(b1-6)]Man(a1-6)]Man(b1-4)GlcNAc(b1-4)GlcNAc", "how_it_was_run": "as §1"}, "[15]": {"target": "Gal(b1-4)GlcNAc(b1-2)[Gal(b1-4)GlcNAc(b1-4)]Man(a1-3)[GlcNAc(b1-4)][Gal(b1-4)GlcNAc(b1-2)Man(a1-6)]Man(b1-4)GlcNAc(b1-4)GlcNAc", "how_it_was_run": "as §1"}, "[16]": {"target": "Gal(b1-4)GlcNAc(b1-2)[Gal(b1-4)GlcNAc(b1-4)]Man(a1-3)[GlcNAc(b1-4)][Gal(b1-4)GlcNAc(b1-2)[Gal(b1-4)GlcNAc(b1-6)]Man(a1-6)]Man(b1-4)GlcNAc(b1-4)GlcNAc", "how_it_was_run": "as §1"}, "[17]": {"target": "Gal(b1-4)GlcNAc(b1-2)[Gal(b1-4)GlcNAc(b1-6)]Man(a1-6)[Gal(b1-4)GlcNAc(b1-2)Man(a1-3)]Man(b1-4)GlcNAc(b1-4)GlcNAc", "how_it_was_run": "as §1"}, "[18]": {"target": "Gal(b1-4)GlcNAc(b1-2)[Gal(b1-4)GlcNAc(b1-6)]Man(a1-6)[Gal(b1-4)GlcNAc(b1-2)Man(a1-3)]Man(b1-4)GlcNAc(b1-4)[Fuc(a1-6)]GlcNAc", "how_it_was_run": "as §1"}, "[19]": {"target": "Gal(b1-4)GlcNAc(b1-2)[Gal(b1-4)GlcNAc(b1-6)]Man(a1-6)[GlcNAc(b1-4)][Gal(b1-4)GlcNAc(b1-2)Man(a1-3)]Man(b1-4)GlcNAc(b1-4)GlcNAc", "how_it_was_run": "as §1"}, "[20]": {"target": "Gal(b1-4)GlcNAc(b1-2)[Gal(b1-4)GlcNAc(b1-6)]Man(a1-6)[GlcNAc(b1-4)][Gal(b1-4)GlcNAc(b1-2)[Gal(b1-4)GlcNAc(b1-4)]Man(a1-3)]Man(b1-4)GlcNAc(b1-4)[Fuc(a1-6)]GlcNAc", "how_it_was_run": "as §1"}, "[21]": {"target": "Gal(b1-4)GlcNAc(b1-3)Gal(b1-3)GalNAc", "how_it_was_run": "as §1"}, "[22]": {"target": "Gal(b1-4)GlcNAc(b1-3)Gal(b1-3)GlcNAc", "how_it_was_run": "as §1"}, "[23]": {"target": "Gal(b1-4)GlcNAc(b1-3)Gal(b1-4)Glc", "how_it_was_run": "as §1"}, "[24]": {"target": "Gal(b1-4)GlcNAc(b1-3)Gal(b1-4)GlcNAc", "how_it_was_run": "as §1"}, "[25]": {"target": "Gal(b1-4)GlcNAc(b1-3)Gal(b1-4)GlcNAc(b1-2)Man(a1-3)[Gal(b1-4)GlcNAc(b1-3)Gal(b1-4)GlcNAc(b1-2)Man(a1-6)]Man(b1-4)GlcNAc(b1-4)GlcNAc", "how_it_was_run": "as §1"}, "[26]": {"target": "Gal(b1-4)GlcNAc(b1-3)Gal(b1-4)GlcNAc(b1-2)Man(a1-3)[Gal(b1-4)GlcNAc(b1-3)Gal(b1-4)GlcNAc(b1-2)Man(a1-6)]Man(b1-4)GlcNAc(b1-4)[Fuc(a1-6)]GlcNAc", "how_it_was_run": "as §1"}}, "note": "The list shows a part of the results.", "data": [{"binder": "B1", "values": [{"measurement": "glycan array binding signal (z-score)", "setting": "Gal(b1-4)Glc", "value": -0.043}, {"measurement": "glycan array binding signal (z-score)", "setting": "Gal(b1-4)Glc6S", "value": -0.431}, {"measurement": "glycan array binding signal (z-score)", "setting": "Gal(b1-4)GlcNAc", "value": -0.975}, {"measurement": "glycan array binding signal (z-score)", "setting": "[1]", "value": -0.588}, {"measurement": "glycan array binding signal (z-score)", "setting": "Gal(b1-4)GlcNAc(b1-2)Man", "value": -0.561}, {"measurement": "glycan array binding signal (z-score)", "setting": "[2]", "value": -0.596}, {"measurement": "glycan array binding signal (z-score)", "setting": "[3]", "value": -0.233}, {"measurement": "glycan array binding signal (z-score)", "setting": "[4]", "value": 0.813}, {"measurement": "glycan array binding signal (z-score)", "setting": "[5]", "value": -0.282}, {"measurement": "glycan array binding signal (z-score)", "setting": "[6]", "value": -0.609}, {"measurement": "glycan array binding signal (z-score)", "setting": "[7]", "value": 0.165}, {"measurement": "glycan array binding signal (z-score)", "setting": "[8]", "value": -0.797}, {"measurement": "glycan array binding signal (z-score)", "setting": "[9]", "value": -1.12}, {"measurement": "glycan array binding signal (z-score)", "setting": "[10]", "value": 0.105}, {"measurement": "glycan array binding signal (z-score)", "setting": "[11]", "value": -0.326}, {"measurement": "glycan array binding signal (z-score)", "setting": "[12]", "value": -0.918}, {"measurement": "glycan array binding signal (z-score)", "setting": "[13]", "value": 0.148}, {"measurement": "glycan array binding signal (z-score)", "setting": "[14]", "value": -0.987}, {"measurement": "glycan array binding signal (z-score)", "setting": "[15]", "value": 1.09}, {"measurement": "glycan array binding signal (z-score)", "setting": "[16]", "value": -0.468}, {"measurement": "glycan array binding signal (z-score)", "setting": "[17]", "value": -0.74}, {"measurement": "glycan array binding signal (z-score)", "setting": "[18]", "value": 0.398}, {"measurement": "glycan array binding signal (z-score)", "setting": "[19]", "value": -0.175}, {"measurement": "glycan array binding signal (z-score)", "setting": "[20]", "value": -0.497}, {"measurement": "glycan array binding signal (z-score)", "setting": "[21]", "value": 0.897}, {"measurement": "glycan array binding signal (z-score)", "setting": "[22]", "value": 0.036}, {"measurement": "glycan array binding signal (z-score)", "setting": "[23]", "value": -0.097}, {"measurement": "glycan array binding signal (z-score)", "setting": "[24]", "value": -0.832}, {"measurement": "glycan array binding signal (z-score)", "setting": "[25]", "value": 2.57}, {"measurement": "glycan array binding signal (z-score)", "setting": "[26]", "value": 0.357}]}]}
